According to US20030165506A1:
Results are given in words; binding and its absence hold for the method and conditions named. In cells and extracts the contact can be indirect. Some binding calls cover weakened binding; strength is not graded here. For some of these results: Tags and fused reporters may be left off the sequences shown. One block for each binder: values may come before it.

Protein sequences, listed by entry. Tags and fused reporters are not part of them. Residues count along the entry.
UniProt Q02248, residues 2-781: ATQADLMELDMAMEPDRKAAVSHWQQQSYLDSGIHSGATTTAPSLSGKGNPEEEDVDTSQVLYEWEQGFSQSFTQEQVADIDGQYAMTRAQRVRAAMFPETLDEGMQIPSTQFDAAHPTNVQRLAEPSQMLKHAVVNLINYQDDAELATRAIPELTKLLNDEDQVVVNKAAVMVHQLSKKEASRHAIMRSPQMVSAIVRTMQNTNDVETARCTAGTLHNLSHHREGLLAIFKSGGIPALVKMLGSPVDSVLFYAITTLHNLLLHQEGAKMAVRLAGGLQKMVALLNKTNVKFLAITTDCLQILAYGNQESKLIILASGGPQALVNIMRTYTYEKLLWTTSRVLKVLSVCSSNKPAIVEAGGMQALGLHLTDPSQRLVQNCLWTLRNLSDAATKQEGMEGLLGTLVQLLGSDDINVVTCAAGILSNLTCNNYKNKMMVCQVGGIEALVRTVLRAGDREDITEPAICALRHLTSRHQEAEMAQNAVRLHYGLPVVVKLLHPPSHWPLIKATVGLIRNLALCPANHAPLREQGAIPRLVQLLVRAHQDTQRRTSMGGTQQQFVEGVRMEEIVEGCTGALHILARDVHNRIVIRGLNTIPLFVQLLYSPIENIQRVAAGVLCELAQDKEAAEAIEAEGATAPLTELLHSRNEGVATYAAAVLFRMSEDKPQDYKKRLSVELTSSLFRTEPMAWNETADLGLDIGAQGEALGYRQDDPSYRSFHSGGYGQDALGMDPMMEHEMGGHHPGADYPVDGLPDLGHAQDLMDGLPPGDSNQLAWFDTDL
UniProt P35222, residues 2-781: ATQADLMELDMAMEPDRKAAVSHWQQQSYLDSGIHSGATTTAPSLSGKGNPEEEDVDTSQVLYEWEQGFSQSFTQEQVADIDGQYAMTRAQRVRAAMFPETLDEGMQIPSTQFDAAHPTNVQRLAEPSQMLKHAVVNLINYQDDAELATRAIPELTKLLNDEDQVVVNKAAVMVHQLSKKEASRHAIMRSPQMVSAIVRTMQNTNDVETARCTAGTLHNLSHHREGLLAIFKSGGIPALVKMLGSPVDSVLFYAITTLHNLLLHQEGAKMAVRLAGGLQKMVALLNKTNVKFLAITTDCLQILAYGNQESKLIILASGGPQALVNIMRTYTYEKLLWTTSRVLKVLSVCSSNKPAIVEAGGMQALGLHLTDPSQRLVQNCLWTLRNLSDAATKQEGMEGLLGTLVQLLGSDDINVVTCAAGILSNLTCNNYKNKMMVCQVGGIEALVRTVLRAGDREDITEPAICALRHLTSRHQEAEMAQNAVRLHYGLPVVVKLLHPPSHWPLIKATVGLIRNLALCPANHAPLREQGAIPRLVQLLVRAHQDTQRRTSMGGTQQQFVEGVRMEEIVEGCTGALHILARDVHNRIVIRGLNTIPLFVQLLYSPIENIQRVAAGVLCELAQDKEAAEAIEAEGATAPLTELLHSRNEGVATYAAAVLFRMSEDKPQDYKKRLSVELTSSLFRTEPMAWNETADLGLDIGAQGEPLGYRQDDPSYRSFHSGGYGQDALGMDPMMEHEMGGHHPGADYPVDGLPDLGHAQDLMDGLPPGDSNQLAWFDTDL

What was measured:
[1] = biological target: β-catenin endogenous in mouse testis and heart (mouse) (UniProt Q02248); assay: co-immunoprecipitation from mouse heart and testis lysates, Western blot
[2] = biological target: β-catenin endogenous in mouse testis and heart (mouse) (UniProt Q02248); assay: co-immunoprecipitation with serum #952 or anti-β-catenin, Western blot (FIG. 7D)
[3] = biological target: β-catenin endogenous in human cell lines (HEK-293, HCT-8/R1) (human) (UniProt P35222); assay: co-immunoprecipitation with anti-β-catenin or anti-Myc 9E10, Western blot (FIG. 7C)
[4] = biological target: β-catenin endogenous in human cell lines (HEK-293, HCT-8/R1) (human) (UniProt P35222); assay: co-immunoprecipitation from HEK-293 lysates, Western blot

binding [1]: binds
binding [2]: binds
B1: mouse αT-catenin (protein)
chain: MSAETPITLNMDTQDLQIQTFTVEKLLEPLIIQVTTLVNCPQNPSNRKKGRSKRARVLLASVEEATWNLLDKGEMIAKEATVLKEELAAALQEVRKESKALKVSAERFTDDPCYLPKREAVVQAARALLAAVTRLLVLADMIDVMCLLQHVSSFQRTFESLKNVSNKSDLQRTYQKLGKELESLDYLAFKRQQDLKSPSQRDEIAGARATLKENSPLLHSICSACLEHSDVASLKASKDTVCEEIQNALDVISNASQGIQNAPAPPEPQAATLGSAFDELENLIVLNPLTVTEEDVRPSLEKRLEAIISGAALLADSSCTRDLHRERIIAECNAIRQALQDLLTEYMSNTGKTERSNTLNTAIVNMSKKTRDLRRQLRKAIIDHISDSFLDTTVPLLVLIEAAKNGRVKEIKDYAAIFHEHTGRLVEVANLACSMSTNEDGIKIVRIAANHLETLCPQIINAALALASRPKSQVVKNTMEMYKRTWEHYIHVLTEAVDDITSIDDFLAVSESHILEDVNKCIIALRDQDADNLDRAAGAIRGRAARVAHIVAGEMDSYEPGAYTEGVMRNVNFLTSTVIPEFVTQVNVALDALSKNSLTALDDNQFVDISKKIYDTIHDIRCSVMMIRTPEELEDVSDLEDDHEVRSHTSIQTEGKTDRAKMTQLPEAEKEKIAEQVADFKKVKSKLDAEIEIWDDTSNDIIVLAKKMCMIMMEMTDFTRGKGPLKHTTDVIYAAKMISESGSRMDVLARQIANQCPDPPCKQDLLAYLEQIKFYSHQLKICSQVKAEIQNLGGELIVSALDSVTSLIQAAKNLMNAVVQTVKMSYIASTKIIRIQSSAGPRHPVVMWRMKAPAKKPLIKREKPEETWAAARRGSAKKKIHPVQVMSEFRGRQVY

binding [3]: binds
binding [4]: binds
B2: Myc-tagged human αT-catenin encoded by plasmid pEF6MH-ATCTN(1-2860), expressed in HEK-293 cells (protein, not shown: small tags and cut ends)
chain: MSAETPITLNIDPQDLQVQTFTVEKLLEPLIIQVTTLVNCPQNPSSRKKGRSKRASVLLASVEEATWNLLDKGEKIAQEATVLKDELTASLEEVRKESEALKVSAERFTDDPCFLPKREAVVQAARALLAAVTRLLILADMIDVMCLLQHVSAFQRTFETLKNVANKSDLQKTYQKLGKELENLDYLAFKRQQDLKSPNQRDEIAGARASLKENSPLLHSICSACLEHSDVASLKASKDTVCEEIQNALNVISNASQGIQNMTTPPEPQAATLGSALDELENLIVLNPLTVTEEEIRPSLEKRLEAIISGAALLADSSCTRDLHRERIIAECNAIRQALQDLLSEYMNNAGKKERSNTLNIALDNMCKKTRDLRRQLRKAIIDHVSDSFLDTTVPLLVLIEAAKNGREKEIKEYAAIFHEHTSRLVEVANLACSMSTNEDGIKIVKIAANHLETLCPQIINAALALAARPKSQAVKNTMEMYKRTWENHIHVLTEAVDDITSIDDFLAVSESHILEDVNKCIIALRDQDADNLDRAAGAIRGRAARVAHIVTGEMDSYEPGAYTEGVMRNVNFLTSTVIPEFVTQVNVALEALSKSSLNVLDDNQFVDISKKIYDTIHDIRCSVMMIRTPEELEDVSDLEEEHEVRSHTSIQTEGKTDRAKMTQLPEAEKEKIAEQVADFKKVKSKLDAEIEIWDDTSNDIIVLAKNMCMIMMEMTDFTRGKGPLKHTTDVIYAAKMISESGSRMDVLARQIANQCPDPSCKQDLLAYLEQIKFYSHQLKICSQVKAEIQNLGGELIMSALDSVTSLIQAAKNLMNAVVQTVKMSYIASTKIIRIQSPAGPRHPVVMWRMKAPAKKPLIKREKPEETCAAVRRGSAKKKIHPLQVMSEFRGRQIY
